No constants are given. Whether binding was seen depends on the method and setting. A result given as binding can be weak or reduced; the word gives no strength.
Target: soluble recombinant human IL-6 receptor (human)
Experiment: Biacore affinity as referred to in the discussion of the monkey study

binding: binds
B1: Fv5-M83 (antibody, human IgG1, kappa, V domains shown)
VH: QVQLQESGPGLVKPSETLSLTCAVSGYSISDDHAVSWVRQPPGEGLEWIGFISYSGITNYNPTLQDRVTISRDNSKNTLYLQMNSLRAEDTAVYYCARLLARATAMDVWGEGTLVTVSS
VL: DIQMTQSPSSLSASVGDSVTITCQASQDISSYLNWYQQKPGKAPELLIYYGSELESGVPSRFSGSGSGTDFTFTISSLEAEDAATYYCGQGNRLPYTFGQGTKVEIER

Reference: patent WO2010106812A1
